Data as given in publication PMC4947160.
These are yes or no findings as the source states them, for the method shown. Binding seen in cells or lysates may run through a third protein. Some results given as binding are weak or reduced against the parent protein; the word gives no strength.

By UniProt entry, the sequences of proteins in these tests, tags left out.
UniProt P46414: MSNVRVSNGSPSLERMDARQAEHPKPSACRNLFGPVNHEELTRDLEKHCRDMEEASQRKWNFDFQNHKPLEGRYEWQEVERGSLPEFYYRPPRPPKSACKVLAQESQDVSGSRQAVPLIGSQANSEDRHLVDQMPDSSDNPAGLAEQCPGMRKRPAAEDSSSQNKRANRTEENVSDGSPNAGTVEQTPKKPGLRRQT
UniProt P46527: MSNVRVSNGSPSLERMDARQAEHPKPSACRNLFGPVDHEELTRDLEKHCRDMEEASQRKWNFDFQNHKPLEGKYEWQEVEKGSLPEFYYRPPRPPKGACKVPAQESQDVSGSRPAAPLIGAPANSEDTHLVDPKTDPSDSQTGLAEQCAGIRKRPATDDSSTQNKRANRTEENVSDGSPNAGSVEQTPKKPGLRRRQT
UniProt Q9DBY1: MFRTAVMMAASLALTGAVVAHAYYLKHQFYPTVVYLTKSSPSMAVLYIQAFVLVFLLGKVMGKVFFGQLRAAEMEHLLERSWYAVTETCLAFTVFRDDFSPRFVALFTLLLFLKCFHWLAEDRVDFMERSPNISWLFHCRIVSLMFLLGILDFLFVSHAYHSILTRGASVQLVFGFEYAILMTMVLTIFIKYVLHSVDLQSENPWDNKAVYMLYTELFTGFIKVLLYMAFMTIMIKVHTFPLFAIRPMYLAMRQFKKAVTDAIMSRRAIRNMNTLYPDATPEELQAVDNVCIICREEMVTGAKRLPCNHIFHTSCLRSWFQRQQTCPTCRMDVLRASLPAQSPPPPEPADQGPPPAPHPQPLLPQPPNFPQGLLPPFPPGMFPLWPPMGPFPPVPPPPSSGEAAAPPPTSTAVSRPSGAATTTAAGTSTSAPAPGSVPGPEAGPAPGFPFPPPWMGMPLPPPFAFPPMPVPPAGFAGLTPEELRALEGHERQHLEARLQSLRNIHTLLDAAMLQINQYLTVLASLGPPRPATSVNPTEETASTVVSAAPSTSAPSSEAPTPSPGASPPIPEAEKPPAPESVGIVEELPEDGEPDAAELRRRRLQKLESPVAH
UniProt Q86TM6: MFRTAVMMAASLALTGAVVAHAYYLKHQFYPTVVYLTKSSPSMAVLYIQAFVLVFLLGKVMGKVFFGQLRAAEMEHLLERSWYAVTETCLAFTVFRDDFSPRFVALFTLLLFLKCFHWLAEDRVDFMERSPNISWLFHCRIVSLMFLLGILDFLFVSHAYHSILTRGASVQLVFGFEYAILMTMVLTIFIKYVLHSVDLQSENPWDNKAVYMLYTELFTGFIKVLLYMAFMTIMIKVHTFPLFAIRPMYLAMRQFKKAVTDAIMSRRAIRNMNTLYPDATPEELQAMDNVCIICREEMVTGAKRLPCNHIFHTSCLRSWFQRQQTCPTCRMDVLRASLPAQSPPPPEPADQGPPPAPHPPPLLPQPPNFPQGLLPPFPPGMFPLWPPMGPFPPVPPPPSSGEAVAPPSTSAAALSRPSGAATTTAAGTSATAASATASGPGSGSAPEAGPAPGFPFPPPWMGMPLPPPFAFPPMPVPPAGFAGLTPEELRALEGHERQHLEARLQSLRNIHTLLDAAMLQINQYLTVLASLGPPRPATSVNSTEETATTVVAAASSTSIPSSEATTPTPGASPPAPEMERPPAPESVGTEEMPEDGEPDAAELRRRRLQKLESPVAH

Legend:
[1] = target: p27^kip1 (endogenous, mouse CD4 T cells) (mouse (endogenous in primary CD4 T cells)) (UniProt P46414); test: co-IP; endogenous proteins in mouse primary CD4 T cells, naive or stimulated with anti-CD3 or anti-CD3 plus anti-CD28 (30 min or 24 h); lysis in RIPA buffer; immunoprecipitation with anti-p27, immunoblotting with anti-Hrd1; p27^kip1 KO T cells as control
Flag-p27 = Flag-p27 (UniProt P46527); test: co-IP; HEK293 cells transiently transfected with Myc-Hrd1 (or its CA mutant) and Flag-p27; lysis in RIPA buffer; immunoprecipitation with anti-Flag, immunoblotting with anti-Myc

In the case of “Hrd1 (endogenous, mouse CD4 T cells) (from UniProt Q9DBY1 1-612) (enzyme)”, the binding [1] is reported as “binds”.

For “Myc-tagged Hrd1 (from UniProt Q86TM6 1-617) (enzyme)”, the binding (Flag-p27) was “binds”.
